The values below are quoted from earlier work in article PMC3481835 (Clinical pharmacology and therapeutics, 2011).

In this data set the test system is CYP3A4. The conditions noted are these: range printed for the three inhibitors; cited from earlier work.

Take `CCCCc1oc2ccccc2c1C(=O)c1cc(I)c(OCCN(CC)CC)c(I)c1` [amiodarone]: the “decrease in urinary 6β-hydroxycortisol to cortisol-ratio” value is listed as 15-65%.
